Results: article PMC8948201
No constants are given. Whether binding was seen depends on the method and setting. In cells and extracts the contact can be indirect. Some entries that bind do so weakly or less than the wild type.

The chains behind the UniProt entries cited, without tags or fusion partners.
UniProt Q9Y6Y1: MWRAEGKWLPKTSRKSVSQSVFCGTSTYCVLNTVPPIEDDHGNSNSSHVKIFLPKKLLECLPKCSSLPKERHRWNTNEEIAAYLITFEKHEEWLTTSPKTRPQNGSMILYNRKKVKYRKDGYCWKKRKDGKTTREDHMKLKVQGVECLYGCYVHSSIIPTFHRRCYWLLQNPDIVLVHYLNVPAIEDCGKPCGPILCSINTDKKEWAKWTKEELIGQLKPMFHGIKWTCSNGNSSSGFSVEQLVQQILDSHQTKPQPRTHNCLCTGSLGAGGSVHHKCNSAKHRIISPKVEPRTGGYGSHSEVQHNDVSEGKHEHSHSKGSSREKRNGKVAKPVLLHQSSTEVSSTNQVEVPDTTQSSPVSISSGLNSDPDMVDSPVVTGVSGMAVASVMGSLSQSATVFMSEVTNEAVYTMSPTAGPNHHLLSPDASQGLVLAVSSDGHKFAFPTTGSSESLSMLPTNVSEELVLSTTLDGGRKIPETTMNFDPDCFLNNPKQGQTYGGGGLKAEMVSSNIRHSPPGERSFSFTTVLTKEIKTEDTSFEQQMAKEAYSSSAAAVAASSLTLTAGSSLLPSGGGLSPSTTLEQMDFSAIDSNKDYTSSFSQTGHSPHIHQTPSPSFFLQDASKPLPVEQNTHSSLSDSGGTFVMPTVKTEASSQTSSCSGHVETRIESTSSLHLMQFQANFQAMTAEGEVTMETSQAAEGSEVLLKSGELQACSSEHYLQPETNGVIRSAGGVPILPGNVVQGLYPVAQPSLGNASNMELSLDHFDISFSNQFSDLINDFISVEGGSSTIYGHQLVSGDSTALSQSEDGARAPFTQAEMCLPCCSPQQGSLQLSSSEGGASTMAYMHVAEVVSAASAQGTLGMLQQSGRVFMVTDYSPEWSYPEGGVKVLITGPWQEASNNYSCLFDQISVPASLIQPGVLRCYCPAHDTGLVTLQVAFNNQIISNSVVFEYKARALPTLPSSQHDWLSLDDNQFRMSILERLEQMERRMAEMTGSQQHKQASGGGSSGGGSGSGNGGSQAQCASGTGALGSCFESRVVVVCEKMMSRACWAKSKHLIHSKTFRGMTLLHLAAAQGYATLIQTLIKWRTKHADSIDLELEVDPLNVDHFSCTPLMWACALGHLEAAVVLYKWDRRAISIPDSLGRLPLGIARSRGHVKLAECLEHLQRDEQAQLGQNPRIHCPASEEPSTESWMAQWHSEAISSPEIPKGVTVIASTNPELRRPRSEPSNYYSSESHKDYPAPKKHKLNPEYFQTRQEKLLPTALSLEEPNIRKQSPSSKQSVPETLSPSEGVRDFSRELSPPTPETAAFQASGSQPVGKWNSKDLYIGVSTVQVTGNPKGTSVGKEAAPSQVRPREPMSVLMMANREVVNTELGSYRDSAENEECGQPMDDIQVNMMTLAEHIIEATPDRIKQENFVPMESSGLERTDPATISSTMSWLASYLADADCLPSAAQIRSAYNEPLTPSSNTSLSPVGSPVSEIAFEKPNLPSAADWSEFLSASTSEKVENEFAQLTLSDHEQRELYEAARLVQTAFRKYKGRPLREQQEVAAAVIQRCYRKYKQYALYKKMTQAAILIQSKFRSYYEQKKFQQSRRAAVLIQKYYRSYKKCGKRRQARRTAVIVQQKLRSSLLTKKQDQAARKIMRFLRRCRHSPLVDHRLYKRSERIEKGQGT

Target: Calmodulin-binding transcription activator 1 (CAMTA1) (human (endogenous in SW480 and SW620)) (UniProt Q9Y6Y1)
Assay: co-IP; SW480 and SW620 cells lysed in RIPA buffer (50 mM Tris-HCl, 150 mM NaCl, 1% Nonidet-40, 0.5% sodium deoxycholate, 1 mM EDTA, 0.1% SDS, pH 7.4); 1 mg protein with 3 ug anti-CAMTA1, anti-NFATc4 or anti-PPP3CA IgG overnight at 4 °C; protein A agarose beads 2 h at 4 °C; western blot

B1: Nuclear factor of activated T cells, cytoplasmic 4 (NFATc4) (protein, UniProt Q14934-11 1-857)
chain: MITTLPSLLPASLASISHRVTNLPSNSLSHNPGLSKPDFPGNSSPGLPSSSSPGRDLGAPAGSMGAASCEDEELEFKLVFGEEKEAPPLGAGGLGEELDSEDAPPCCRLALGEPPPYGAAPIGIPRPPPPRPGMHSPPPRPAPSPGTWESQPARSVRLGGPGGGAGGAGGGRVLECPSIRITSISPTPEPPAALEDNPDAWGDGSPRDYPPPEGFGGYREAGGQGGGAFFSPSPGSSSLSSWSFFSDASDEAALYAACDEVESELNEAASRFGLGSPLPSPRASPRPWTPEDPWSLYGPSPGGRGPEDSWLLLSAPGPTPASPRPASPCGKRRYSSSGTPSSASPALSRRGSLGEEGSEPPPPPPLPLARDPGSPGPFDYVGAPPAESIPQKTRRTSSEQAVALPRSEEPASCNGKLPLGAEESVAPPGGSRKEVAGMDYLAVPSPLAWSKARIGGHSPIFRTSALPPLDWPLPSQYEQLELRIEVQPRAHHRAHYETEGSRGAVKAAPGGHPVVKLLGYSEKPLTLQMFIGTADERNLRPHAFYQVHRITGKMVATASYEAVVSGTKVLEMTLLPENNMAANIDCAGILKLRNSDIELRKGETDIGRKNTRVRLVFRVHVPQGGGKVVSVQAASVPIECSQRSAQELPQVEAYSPSACSVRGGEELVLTGSNFLPDSKVVFIERGPDGKLQWEEEATVNRLQSNEVTLTLTVPEYSNKRVSRPVQVYFYVSNGRRKRSPTQSFRFLPVICKEEPLPDSSLRGFPSASATPFGTDMDFSPPRPPYPSYPHEDPACETPYLSEGFGYGMPPLYPQTGPPPSYRPGLRMFPETRGTTVSEIIGRDLSGFPAPPGEEPPA
binding: binds
